Measured values published in the supplement of paper PMC10849652.
Some of the results follow.

By UniProt entry, the sequences of proteins in these tests, tags left out. Where a name states a change or a piece, a line headed by the entry shows the natural chain unless it says otherwise.
UniProt O95427: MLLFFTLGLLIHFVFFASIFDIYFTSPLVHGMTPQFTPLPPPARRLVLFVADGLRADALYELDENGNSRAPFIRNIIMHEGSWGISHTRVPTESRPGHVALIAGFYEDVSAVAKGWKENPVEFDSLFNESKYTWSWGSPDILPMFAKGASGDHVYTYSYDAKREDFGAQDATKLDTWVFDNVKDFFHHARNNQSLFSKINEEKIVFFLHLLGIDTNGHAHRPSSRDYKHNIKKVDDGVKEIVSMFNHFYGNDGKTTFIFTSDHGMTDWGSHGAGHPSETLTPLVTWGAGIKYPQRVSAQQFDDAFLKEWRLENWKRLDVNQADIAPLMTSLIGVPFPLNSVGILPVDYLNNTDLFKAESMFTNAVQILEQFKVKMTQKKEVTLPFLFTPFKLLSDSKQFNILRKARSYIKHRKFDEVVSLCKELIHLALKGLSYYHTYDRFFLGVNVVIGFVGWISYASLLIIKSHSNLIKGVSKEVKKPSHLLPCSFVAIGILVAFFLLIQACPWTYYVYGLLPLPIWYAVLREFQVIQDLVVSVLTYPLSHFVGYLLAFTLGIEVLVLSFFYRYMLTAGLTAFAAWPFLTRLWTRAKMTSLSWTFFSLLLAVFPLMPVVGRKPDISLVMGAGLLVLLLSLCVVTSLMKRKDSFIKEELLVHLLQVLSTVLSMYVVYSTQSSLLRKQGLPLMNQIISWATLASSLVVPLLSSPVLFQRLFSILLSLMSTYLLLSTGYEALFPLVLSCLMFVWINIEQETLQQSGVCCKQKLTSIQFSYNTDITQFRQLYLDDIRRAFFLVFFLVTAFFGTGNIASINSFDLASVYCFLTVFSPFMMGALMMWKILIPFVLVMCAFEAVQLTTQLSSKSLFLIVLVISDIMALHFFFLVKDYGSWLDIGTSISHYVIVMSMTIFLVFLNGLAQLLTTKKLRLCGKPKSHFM
UniProt Q53GA4: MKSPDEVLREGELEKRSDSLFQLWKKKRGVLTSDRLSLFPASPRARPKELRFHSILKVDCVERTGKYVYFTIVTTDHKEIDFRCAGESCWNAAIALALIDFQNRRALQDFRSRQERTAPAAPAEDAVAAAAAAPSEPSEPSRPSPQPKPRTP
UniProt Q16816: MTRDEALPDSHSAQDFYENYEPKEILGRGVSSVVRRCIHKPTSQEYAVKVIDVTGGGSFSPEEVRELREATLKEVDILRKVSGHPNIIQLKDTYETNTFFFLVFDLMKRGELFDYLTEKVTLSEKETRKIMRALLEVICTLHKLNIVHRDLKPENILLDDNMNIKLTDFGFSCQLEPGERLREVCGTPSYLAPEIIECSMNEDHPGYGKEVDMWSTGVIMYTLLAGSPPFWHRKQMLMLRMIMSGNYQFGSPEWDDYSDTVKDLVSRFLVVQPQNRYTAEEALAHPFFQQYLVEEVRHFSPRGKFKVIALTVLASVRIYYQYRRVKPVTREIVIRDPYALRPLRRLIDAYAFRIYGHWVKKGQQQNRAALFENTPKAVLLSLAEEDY
UniProt P48736: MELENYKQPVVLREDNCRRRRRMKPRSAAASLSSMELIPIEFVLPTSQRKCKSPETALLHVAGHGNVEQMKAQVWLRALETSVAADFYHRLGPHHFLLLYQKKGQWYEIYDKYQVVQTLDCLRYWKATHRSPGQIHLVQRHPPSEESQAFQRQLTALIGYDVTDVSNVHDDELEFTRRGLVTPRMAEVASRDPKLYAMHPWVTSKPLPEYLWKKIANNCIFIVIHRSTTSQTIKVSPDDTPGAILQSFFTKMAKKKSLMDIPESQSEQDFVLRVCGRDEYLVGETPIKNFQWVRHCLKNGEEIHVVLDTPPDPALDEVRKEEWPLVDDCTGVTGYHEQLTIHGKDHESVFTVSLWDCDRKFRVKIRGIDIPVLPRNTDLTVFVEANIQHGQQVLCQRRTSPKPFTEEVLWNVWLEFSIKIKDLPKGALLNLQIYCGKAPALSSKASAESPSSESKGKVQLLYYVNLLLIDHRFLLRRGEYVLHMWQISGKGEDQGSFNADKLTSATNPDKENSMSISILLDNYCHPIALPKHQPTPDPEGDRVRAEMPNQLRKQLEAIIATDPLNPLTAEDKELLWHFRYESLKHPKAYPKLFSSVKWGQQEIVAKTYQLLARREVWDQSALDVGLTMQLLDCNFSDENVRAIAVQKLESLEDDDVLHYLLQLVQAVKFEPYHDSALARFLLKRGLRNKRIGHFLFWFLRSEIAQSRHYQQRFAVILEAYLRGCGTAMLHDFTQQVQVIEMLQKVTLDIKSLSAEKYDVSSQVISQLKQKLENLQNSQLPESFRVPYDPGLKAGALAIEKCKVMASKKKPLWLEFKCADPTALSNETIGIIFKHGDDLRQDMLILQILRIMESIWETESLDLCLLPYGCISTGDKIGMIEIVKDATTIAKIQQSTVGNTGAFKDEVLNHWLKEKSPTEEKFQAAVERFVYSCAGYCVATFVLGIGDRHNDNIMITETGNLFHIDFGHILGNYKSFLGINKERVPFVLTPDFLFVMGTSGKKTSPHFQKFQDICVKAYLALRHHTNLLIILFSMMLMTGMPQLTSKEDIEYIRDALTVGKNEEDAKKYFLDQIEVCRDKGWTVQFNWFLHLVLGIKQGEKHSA
UniProt Q9H5I5: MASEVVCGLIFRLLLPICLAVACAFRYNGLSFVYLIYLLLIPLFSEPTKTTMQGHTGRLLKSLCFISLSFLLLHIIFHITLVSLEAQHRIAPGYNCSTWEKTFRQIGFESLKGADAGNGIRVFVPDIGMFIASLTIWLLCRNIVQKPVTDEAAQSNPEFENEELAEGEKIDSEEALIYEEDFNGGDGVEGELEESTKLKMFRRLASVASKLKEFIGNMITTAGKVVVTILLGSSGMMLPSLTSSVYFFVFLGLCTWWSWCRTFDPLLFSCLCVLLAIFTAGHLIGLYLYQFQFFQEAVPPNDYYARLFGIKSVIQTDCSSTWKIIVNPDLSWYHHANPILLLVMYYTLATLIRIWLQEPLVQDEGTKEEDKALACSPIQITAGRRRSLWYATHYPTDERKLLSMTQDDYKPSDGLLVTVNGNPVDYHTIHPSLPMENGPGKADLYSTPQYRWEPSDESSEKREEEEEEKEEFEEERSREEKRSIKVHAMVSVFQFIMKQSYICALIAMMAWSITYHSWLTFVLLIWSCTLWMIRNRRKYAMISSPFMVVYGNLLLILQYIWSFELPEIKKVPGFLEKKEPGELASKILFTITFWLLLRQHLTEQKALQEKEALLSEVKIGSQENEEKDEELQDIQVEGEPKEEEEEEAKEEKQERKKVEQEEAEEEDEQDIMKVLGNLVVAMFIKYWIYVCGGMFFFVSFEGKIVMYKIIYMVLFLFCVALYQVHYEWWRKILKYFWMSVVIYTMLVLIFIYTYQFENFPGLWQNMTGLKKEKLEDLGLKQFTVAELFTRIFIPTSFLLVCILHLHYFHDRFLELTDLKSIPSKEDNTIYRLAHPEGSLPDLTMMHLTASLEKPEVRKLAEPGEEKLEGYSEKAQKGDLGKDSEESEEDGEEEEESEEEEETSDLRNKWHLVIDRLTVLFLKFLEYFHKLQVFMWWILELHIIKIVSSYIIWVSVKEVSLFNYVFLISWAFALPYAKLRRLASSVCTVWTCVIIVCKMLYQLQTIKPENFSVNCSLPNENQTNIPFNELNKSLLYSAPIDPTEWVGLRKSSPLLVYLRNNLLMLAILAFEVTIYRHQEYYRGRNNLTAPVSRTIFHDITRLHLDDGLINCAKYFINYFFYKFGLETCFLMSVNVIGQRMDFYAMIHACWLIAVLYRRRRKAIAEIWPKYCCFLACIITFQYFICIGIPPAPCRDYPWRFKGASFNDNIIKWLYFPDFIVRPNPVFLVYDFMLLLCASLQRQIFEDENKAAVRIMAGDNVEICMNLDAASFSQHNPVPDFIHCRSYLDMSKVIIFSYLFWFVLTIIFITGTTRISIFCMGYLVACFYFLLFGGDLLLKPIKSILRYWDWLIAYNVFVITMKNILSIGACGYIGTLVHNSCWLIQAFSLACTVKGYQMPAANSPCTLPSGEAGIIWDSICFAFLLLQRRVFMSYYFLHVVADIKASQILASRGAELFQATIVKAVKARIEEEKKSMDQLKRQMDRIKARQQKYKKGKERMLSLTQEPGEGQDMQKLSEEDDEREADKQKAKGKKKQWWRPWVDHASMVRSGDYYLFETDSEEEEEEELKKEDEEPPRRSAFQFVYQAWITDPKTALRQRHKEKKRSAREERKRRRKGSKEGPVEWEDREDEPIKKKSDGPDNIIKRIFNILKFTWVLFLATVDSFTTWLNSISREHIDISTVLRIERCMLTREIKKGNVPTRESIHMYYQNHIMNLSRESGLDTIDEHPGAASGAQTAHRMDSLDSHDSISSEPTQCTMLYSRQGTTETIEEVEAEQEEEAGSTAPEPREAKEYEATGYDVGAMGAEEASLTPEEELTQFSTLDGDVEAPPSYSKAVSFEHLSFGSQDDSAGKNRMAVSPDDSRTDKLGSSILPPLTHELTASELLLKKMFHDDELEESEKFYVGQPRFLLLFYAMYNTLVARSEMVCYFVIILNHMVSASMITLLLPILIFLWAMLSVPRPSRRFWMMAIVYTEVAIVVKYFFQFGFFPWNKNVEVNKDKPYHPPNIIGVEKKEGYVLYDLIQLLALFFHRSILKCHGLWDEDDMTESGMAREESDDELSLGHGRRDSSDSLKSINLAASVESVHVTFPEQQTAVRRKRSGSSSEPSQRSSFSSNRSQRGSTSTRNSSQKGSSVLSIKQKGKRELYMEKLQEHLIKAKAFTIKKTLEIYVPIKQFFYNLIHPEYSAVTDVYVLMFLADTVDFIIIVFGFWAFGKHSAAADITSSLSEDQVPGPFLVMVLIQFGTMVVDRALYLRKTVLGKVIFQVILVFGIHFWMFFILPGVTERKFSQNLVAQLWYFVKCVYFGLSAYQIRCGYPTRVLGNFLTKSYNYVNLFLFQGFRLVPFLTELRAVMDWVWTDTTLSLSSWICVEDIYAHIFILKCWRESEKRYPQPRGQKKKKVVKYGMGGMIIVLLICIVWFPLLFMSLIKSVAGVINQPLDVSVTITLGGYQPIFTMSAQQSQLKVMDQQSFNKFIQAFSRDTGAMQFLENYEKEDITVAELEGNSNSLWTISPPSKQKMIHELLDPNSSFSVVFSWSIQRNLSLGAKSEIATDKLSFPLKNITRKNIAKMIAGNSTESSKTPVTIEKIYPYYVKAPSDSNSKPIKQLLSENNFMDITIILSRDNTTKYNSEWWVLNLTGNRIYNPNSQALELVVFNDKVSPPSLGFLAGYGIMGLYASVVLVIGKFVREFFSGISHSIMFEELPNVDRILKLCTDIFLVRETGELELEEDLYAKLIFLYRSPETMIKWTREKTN
UniProt O75928, whole entry, looked up: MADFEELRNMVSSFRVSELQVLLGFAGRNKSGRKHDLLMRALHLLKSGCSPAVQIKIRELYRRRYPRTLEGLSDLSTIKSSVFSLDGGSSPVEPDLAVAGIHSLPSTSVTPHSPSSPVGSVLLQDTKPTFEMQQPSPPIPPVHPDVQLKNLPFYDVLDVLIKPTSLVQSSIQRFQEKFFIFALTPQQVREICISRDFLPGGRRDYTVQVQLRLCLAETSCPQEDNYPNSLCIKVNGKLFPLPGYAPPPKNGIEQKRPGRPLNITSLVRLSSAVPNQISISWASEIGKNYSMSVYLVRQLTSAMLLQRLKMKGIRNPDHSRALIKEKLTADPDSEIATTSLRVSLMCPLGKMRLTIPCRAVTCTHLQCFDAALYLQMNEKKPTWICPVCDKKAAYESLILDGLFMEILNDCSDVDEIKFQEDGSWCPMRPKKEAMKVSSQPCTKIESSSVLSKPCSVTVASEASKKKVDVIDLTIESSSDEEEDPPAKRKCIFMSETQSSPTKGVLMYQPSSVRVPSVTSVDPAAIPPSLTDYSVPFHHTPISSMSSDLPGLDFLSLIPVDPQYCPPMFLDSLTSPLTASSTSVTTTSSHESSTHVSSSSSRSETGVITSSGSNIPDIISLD
UniProt Q9C010: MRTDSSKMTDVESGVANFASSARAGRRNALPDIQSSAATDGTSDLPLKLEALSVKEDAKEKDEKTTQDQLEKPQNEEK

Columns and labels:
Experiment in all cases: log2 fold change, soluble protein after heating vs DMSO (PISA); higher = thermal stabilisation; K562 lysate, 10 uM; active = over 0.2 and 3.5 SD of the protein, either way, in both replicates (recomputed)
[1] = compound: C#Cc1cccc(Nc2ncnc3cc(OCCOC)c(OCCOC)cc23)c1 [erlotinib]
How it was run: (§1)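 The values are log-two fold changes in thermal stability compared with solvent controls and come from duplicates. They were obtained by TMTpro 16plex LC-MS/MS, with channel sums equalised, on the supernatant after 21,000xg for 90 min. That supernatant came from crude K562 extract at 1 mg/mL protein treated with 10 μM compound for 30 min, heated for 3 min across 48°C-58°C, pooled and brought to 0.5% NP-40 at 4°C.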

[2] = compound: C1=CC(=CC=C1C2=NC3=C(N2)C=C(C=C3)C(=O)N)OC4=CC=C(C=C4)Cl
How it was run: as §1

[3] = compound: C1=CC=C(C=C1)C2=NC(=C(N2)C3=CC=NC=C3)C4=CC(=C(C=C4)Cl)O
How it was run: as §1

[4] = compound: C1CCN(C1)C(=O)NC2=CC=CC(=C2)NC3=NC=C(C(=N3)NCCC4=CN=CN4)Br
How it was run: as §1

[5] = compound: C1CN(CCC1(CC2=CC=C(C=C2)Cl)N)C3=NC=NC4=C3C=CN4
How it was run: as §1

[6] = compound: C1COCCN1CCN2C3=CC=CC=C3N=C2NC(=O)C4=CC(=CC=C4)[N+](=O)[O-] [IRAK-1-4 Inhibitor I]
How it was run: as §1

[7] = compound: CC(C)(C)Cn1c(N)nc2ccc(-c3[nH]c(C(C)(C)C)nc3-c3ccc(F)cc3)nc21 [ralimetinib]
How it was run: as §1

[8] = compound: CC(C)(O)CC(=O)NCCn1ccc2ncnc(Nc3ccc(Oc4cccc(C(F)(F)F)c4)c(Cl)c3)c21
How it was run: as §1

[9] = compound: CC(C)C1=C2N=C(C=C(N2N=C1)NCC3=CC=CC=C3)NCCCCCCN
How it was run: as §1

[10] = compound: CC1=C(C=C(C=C1)NC(=O)C2=CC(=CC=C2)C(C)(C)C#N)NC3=CC4=C(C=C3)N=CN(C4=O)C
How it was run: as §1

[11] = compound: CC1=C(C=C(C=C1)NC(=O)C2=CC(=CC=C2)N(C)C)NC(=O)C3=CC=C(C=C3)O
How it was run: as §1

[12] = compound: C/C(=N\NC(=O)C1=CC(=CC=C1)S(=O)(=O)N2CCOCC2)/C3=C(C=CC(=C3)Cl)O
How it was run: as §1

[13] = compound: C1=CC2=C(C=CC(=C2)/C=C\3/C(=O)NC(=NCC4=CC=CS4)S3)N=C1
How it was run: as §1

[14] = compound: C1=CC=C2C(=C1)C3=NNC4=CC=CC(=C43)C2=O
How it was run: as §1

[15] = compound: CC(=O)c1cnc2ccc(-c3cc(Cl)c(O)c(Cl)c3)nc2c1N[C@H]1CC[C@H](CN(C)C)CC1
How it was run: as §1

[16] = compound: CC1=C(C2=C(C=C1)C(=O)C3=CC=CC=C3N2CCCN)C
How it was run: as §1

[17] = compound: CC1=CC=C(C=C1)SC2=C3C=C(SC3=CN=C2)C(=O)N
How it was run: as §1

[18] = compound: C1=CC2=NC=CN=C2C=C1/C=C/3\C(=O)NC(=O)S3
How it was run: as §1

[19] = compound: C=CC(=O)N1CCC[C@@H](n2nc(-c3ccc(Oc4ccccc4)cc3)c3c(N)ncnc32)C1 [ibrutinib]
How it was run: as §1

[20] = compound: CC1=C(C(CC(=O)N1)C2=CC=C(C=C2)C(F)(F)F)C(=O)NC3=C(C=C4C(=C3)C=NN4)F
How it was run: as §1

Target | log2 fold change [1] | log2 fold change [2] | log2 fold change [3] | log2 fold change [4] | log2 fold change [5] | log2 fold change [6] | log2 fold change [7] | log2 fold change [8] | log2 fold change [9] | log2 fold change [10] | log2 fold change [11] | log2 fold change [12] | log2 fold change [13] | log2 fold change [14] | log2 fold change [15] | log2 fold change [16] | log2 fold change [17] | log2 fold change [18] | log2 fold change [19] | log2 fold change [20]
PLEK (UniProt P08567) | inactive: 0.096 | inactive: -0.133 | inactive: -0.008 | inactive: 0.025 | inactive: -0.024 | inactive: -0.049 | inactive: 0.112 | inactive: -0.392 | inactive: -0.037 | inactive: 0 | inactive: 0.103 |  |  |  |  |  |  |  |  | 
PIGN (UniProt O95427) | inactive: 0.028 | inactive: 0.039 | inactive: -0.029 | inactive: 0.086 | inactive: -0.064 | inactive: 0.035 | inactive: 0.043 | inactive: -0.02 | inactive: -0.032 |  | inactive: -0.014 | inactive: -0.045 | inactive: 0.006 | inactive: -0.081 | inactive: 0.143 | inactive: 0.01 | inactive: -0.042 |  |  | 
PHLPP1 (UniProt O60346) | inactive: 0.163 | inactive: -0.035 | inactive: -0.014 |  |  | inactive: 0.048 | inactive: 0.04 | inactive: 0.123 | inactive: 0.104 | inactive: 0.016 | inactive: -0.146 | inactive: 0.039 | inactive: 0.012 | inactive: -0.011 |  | inactive: -0.045 |  | inactive: -0.065 | inactive: -0.233 | inactive: 0.06
PHF14 (UniProt O94880) |  |  | inactive: -0.086 | inactive: -0.423 | inactive: 0.432 | inactive: 0.035 | inactive: -0.024 | inactive: -0.055 |  |  | inactive: -0.042 | inactive: 0.032 | inactive: -0.01 | inactive: 0.045 | inactive: 0.03 | inactive: -0.003 | inactive: -0.128 | inactive: -0.06 | inactive: -0.014 | active: 0.454
PLAU (UniProt P00749) | inactive: -0.085 | inactive: -0.101 | inactive: -0.02 | inactive: 0.01 | inactive: -0.039 | inactive: 0.076 | inactive: -0.037 | inactive: -0.115 | inactive: 0.089 |  | inactive: 0.08 |  |  |  | inactive: -0.327 | inactive: 0.295 | inactive: -0.132 |  |  | inactive: 0.078
PHLDA2 (UniProt Q53GA4) | inactive: 0.019 | inactive: -0.123 | inactive: -0.073 |  |  | inactive: 0.041 | inactive: 0.03 | inactive: -0.133 | inactive: -0.06 | inactive: -0.054 | inactive: 0.104 | inactive: -0.697 | inactive: 0.04 | inactive: -0.239 |  | inactive: -0.042 |  |  |  | 
PHKG1 isoform 2 (UniProt Q16816) | inactive: 0.003 | inactive: 0.187 | inactive: 0.029 | inactive: 0.157 | inactive: 0.014 | inactive: -0.102 | inactive: 0.02 | inactive: -0.016 | inactive: -0.003 | inactive: 0.017 | inactive: -0.02 | inactive: -0.127 | inactive: 0.061 | inactive: 0.399 | inactive: 0.595 | inactive: -0.196 | inactive: -0.086 |  |  | inactive: -0.117
PIK3CG (UniProt P48736) | inactive: 0.045 | inactive: -0.011 | inactive: -0.047 | inactive: 0 | inactive: 0.003 | inactive: -0.011 | inactive: 0.02 | inactive: -0.047 | inactive: -0.027 | inactive: -0.025 | inactive: 0.01 | inactive: 0 | inactive: 0.045 | inactive: -0.005 |  | inactive: -0.071 |  |  | inactive: -0.017 | inactive: -0.054
PIEZO2 isoform 4 (UniProt Q9H5I5) | inactive: 0.013 | inactive: -0.05 |  | inactive: -0.02 | inactive: -0.003 |  |  |  | inactive: -0.027 | inactive: 0.051 |  |  |  |  | inactive: 0.086 |  | inactive: -0.058 |  |  | inactive: -0.077
PIAS2 (UniProt O75928) | inactive: 0.043 | inactive: 0.035 | inactive: 0.019 | inactive: 0.037 | inactive: -0.002 | inactive: 0.053 | inactive: 0.019 | inactive: 0.006 | inactive: -0.017 | inactive: -0.001 | inactive: -0.002 | inactive: -0.277 | inactive: 0 | inactive: 0.039 |  | inactive: 0.052 |  |  |  | inactive: 0.039
PIAS4 (UniProt Q8N2W9) | inactive: -0.215 | inactive: 0.044 | inactive: 0.036 | inactive: 0.005 | inactive: -0.031 | inactive: -0.004 | inactive: -0.034 | inactive: -0.027 | inactive: -0.172 | inactive: 0.046 | inactive: -0.022 | inactive: -0.036 | inactive: -0.097 | inactive: -0.041 |  | inactive: -0.218 |  |  |  | inactive: 0.005
PIGH (UniProt Q14442) | inactive: -0.02 | inactive: 0.071 |  |  |  |  |  |  | inactive: -0.1 | inactive: -0.137 |  | inactive: 0.035 | inactive: -0.022 | inactive: -0.095 | inactive: 0.033 |  | inactive: -0.149 | inactive: 0.143 | inactive: 0.076 | 
PIK3R3 (UniProt Q92569) |  |  | inactive: -0.059 |  |  | inactive: -0.07 | inactive: 0.122 | inactive: 0.188 |  |  | inactive: 0.113 |  |  |  |  |  |  |  |  | inactive: 0.048
PIGW (UniProt Q7Z7B1) |  |  | inactive: 0.067 |  |  | inactive: 0.015 | inactive: -0.138 | inactive: -0.171 |  | inactive: -0.01 | inactive: -0.058 | inactive: -0.181 | inactive: -0.089 | inactive: -0.014 |  | inactive: 0.047 |  |  |  | inactive: 0.013
PHGDH, A0A286YFE1 |  |  |  |  |  |  |  |  |  |  |  |  |  |  | inactive: 0.084 | inactive: -0.458 | inactive: 0.107 | inactive: -0.166 | inactive: 0.032 | 
PKIB isoform 2 (UniProt Q9C010) |  |  | inactive: -0.223 |  |  | inactive: -0.056 | inactive: -0.114 | inactive: 0.039 |  |  | inactive: 0.136 |  |  |  | inactive: -0.056 |  | inactive: -0.191 |  |  | 

Quoted at random: 2 records from the list, in no set order.
Target | log2 fold change [1] | log2 fold change [2] | log2 fold change [3] | log2 fold change [4] | log2 fold change [5] | log2 fold change [6] | log2 fold change [7] | log2 fold change [8] | log2 fold change [9] | log2 fold change [10] | log2 fold change [11] | log2 fold change [12] | log2 fold change [13] | log2 fold change [14] | log2 fold change [15] | log2 fold change [16] | log2 fold change [17] | log2 fold change [18] | log2 fold change [19] | log2 fold change [20]
PIK3CG (UniProt P48736) | inactive: 0.045 | inactive: -0.011 | inactive: -0.047 | inactive: 0 | inactive: 0.003 | inactive: -0.011 | inactive: 0.02 | inactive: -0.047 | inactive: -0.027 | inactive: -0.025 | inactive: 0.01 | inactive: 0 | inactive: 0.045 | inactive: -0.005 |  | inactive: -0.071 |  |  | inactive: -0.017 | inactive: -0.054
PIGW (UniProt Q7Z7B1) |  |  | inactive: 0.067 |  |  | inactive: 0.015 | inactive: -0.138 | inactive: -0.171 |  | inactive: -0.01 | inactive: -0.058 | inactive: -0.181 | inactive: -0.089 | inactive: -0.014 |  | inactive: 0.047 |  |  |  | inactive: 0.013
